At least one peptide structure holds a part that was inferred or is arguable (an end, a ring closure or a residue). No end group written: not given here.
Legend:
HLA-A*2402 = molecular target: T1, HLA-A*2402 (UniProt P01901+P04439, D101N/D140Y/E190D/F33S/G103R/G107R/I119L/I121M/L105A/N151K/N90K/Q86E/Q94H/R106L/R138H/R89G/T104I/V100E/W191G/Y123F); experiment: Binding affinity of peptides to HLA-A*2402 (RMA-S-A*2402 cells, flow cytometry, mean fluorescence intensity); design: species or system human; settings: anti-HLA-A24 antibodies, FACScan, result in words
T1 construct: H-2 Kb part of the chimeric heavy chain (mouse MHC class I); expressed in transfected cells; host or cells: RMA-S-A*2402 (mouse lymphoma cell line RMA-S stably carrying the chimeric gene)
Experimental: The binding affinities to HLA-A*2402 of the peptides synthesized in Example 1 were determined by the method as described in a literature (J. Immunol. 164:2565, 2000). A cell line RMA-S-A*2402 cell, which was obtained by stably introducing a chimera MHC gene composed of HLA-A*2402 and H-2 Kb into a mouse lymphoma cell line RMA-S lacking MHC class 1 molecule, was incubated at 26° C. for 18 hours. RMA-S-A*2402 cells were washed with PBS solution, suspended in culture solution OPTI-MEM (Invitrogen) containing […] human β2-microglobulin and […] each peptide, and incubated at 26° C. for 3 hours and at 37° C. for 3 hours. The cells were washed with PBS solution and treated with anti-HLA-A24 antibodies at 4° C. for 30 minutes. Furthermore, the cells were washed with PBS solution, and treated with a PE-labeled anti-mouse IgG antibody at 4° C. for 30 minutes. The cells were washed, and suspended in 1 ml of PBS solution containing 1% formalin for fixation. The cells were measured by a device for flow cytometry, FACScan (BD Bioscience), and the binding affinity of the peptide was obtained from the mean fluorescence intensity.
In the figure, the horizontal axis indicates mean fluorescence intensity (MFI, corresponding to the binding affinity), and the vertical axis indicates the names of the peptides. The results obtained without peptide addition are mentioned as (−).

Protein sequences, listed by entry. Tags and fused reporters are not part of them.
UniProt P01901, whole entry, looked up, stated change not applied: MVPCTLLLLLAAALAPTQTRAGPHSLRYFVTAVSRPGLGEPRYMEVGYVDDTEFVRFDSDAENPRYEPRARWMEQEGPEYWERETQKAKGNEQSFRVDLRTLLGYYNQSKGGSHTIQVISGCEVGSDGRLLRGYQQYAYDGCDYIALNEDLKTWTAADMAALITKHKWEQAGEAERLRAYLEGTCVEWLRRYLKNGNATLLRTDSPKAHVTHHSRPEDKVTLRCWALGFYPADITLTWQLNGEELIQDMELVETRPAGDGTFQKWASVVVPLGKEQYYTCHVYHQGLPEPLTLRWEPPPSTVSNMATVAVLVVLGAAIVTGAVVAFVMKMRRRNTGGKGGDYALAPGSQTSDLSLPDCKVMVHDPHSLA

[1] = tested on: PBMCs of HLA-A*2402-positive cancer patients; experiment: CTL induction by Lengsin-derived peptides, response to each peptide by IFN-γ ELISPOT; type: cell-based, human; settings: PBMCs stimulated with mixed peptides; response to each peptide detected
Source text: The fact that the proteins BUB1, C10orf3, C20orf42, Lengsin, HIFPH3 and BJ-TSA-9 are tumor antigen proteins and partial peptides thereof are tumor antigen peptides can be confirmed by evaluating the activities of CTLs induced by the peptides showing the binding affinity to HLA in Example 6. Induction of CTL by a peptide and evaluation of the activity of the induced CTL can be conducted according to a known assay using human peripheral blood mononuclear cells or model animals for human as described in a literature (J. Immunol. 169:1611, 2002, WO 02/47474, Int J. Cancer: 100, 565-570 (2002)). […] After one week from the third stimulation, the cells are co-cultured with target cells (cells expressing HLA to which the administered peptide binds and also a tumor antigen providing the administered peptide or the administered peptide itself, or pulsed with the corresponding peptide previously) labeled with a radioactive agent such as ^51Cr or a nonradioactive agent, and then lysis of the target cells by the CTL are evaluated from the amount of the radioactive or nonradioactive agent in the conditioned medium to assess the activity of the CTL. The activity of CTL can also be assessed by measuring IFN-γ produced in the conditioned medium as result of response between CTL and the target cells using ELISA or ELISPOT. […]

cancer cell line Sw480 = experiment: Cytotoxic activity of CTL induced from PBMCs by C10orf3-derived peptide, cancer cell line target; type: cell-based, human; settings: target Sw480, positive for HLA-A*2402 and C10orf3
HLA-negative K562 cell = experiment: Cytotoxic activity of CTL induced from PBMCs by C10orf3-derived peptide, HLA-negative target; type: cell-based, human

Sequence	binding affinity to HLA-A*2402 (from mean fluorescence intensity) (HLA-A*2402)	induction of peptide-specific CTLs (IFN-γ by ELISPOT) [1]	killing of cancer cell line by the induced CTL clone (cancer cell line Sw480)	killing of HLA-negative cell by the induced CTL clone (HLA-negative K562 cell)
CFNSDIVLM [SEQ ID NO: 22, CFNSDIVLM]	significant binding affinity	induced peptide-specific CTLs	–	–
VYVKGLLAKI [SEQ ID NO: 158, VYVKGLLAKI]	–	–	killed the HLA-A*2402 and C10orf3-positive cancer cell line	not HLA-negative K562 cell

Source: patent US20100015101A1, “NOVEL TUMOR ANTIGEN PEPTIDES” (priority 2006, published 2010)
